Assay results: patent US5700640A, “Inducers of gamma globin gene expression and screening assays therefor” (priority 1994, dated 1997)

Key:
[1] = tested on: gamma globin mRNA; experiment: Northern hybridization of gamma globin mRNA in treated K562 cells; assay type: cell-based; details: Homo sapiens, K562, 96 h, read-out: Fold Induction, gamma globin RNA
Experimental: (§1) Total RNA was prepared by the method of McDonald as described in Sambrook et al., (1989) Molecular Cloning: A Laboratory Manual, 2nd Edition, Cold Spring Harbor Laboratory Press. 10 μg total cellular RNA was electrophoresed through agarose gels containing 3.3% formaldehyde. The electrophoresed RNA was then transferred to nitrocellulose filters by standard methods. Each sample was hybridized to specific probes for gamma globin mRNA, mRNA encoding the erythroid specific transcription factor GATA-1 and 28S ribosomal RNA (which was used for standardization). The gamma globin and GATA-1 probes were cDNA probes, which were labeled with ^32 p by random priming reactions (Promega Biotech Inc.). The 28S ribosomal RNA probe was an oligonucleotide having the sequence 5' […] 3' (SEQ ID NO: 3), which was labeled by 5' end labeling using T4 polynucleotide kinase (New England Biolabs). Nucleotide probes were hybridized to the RNA nitrocellulose filters according to standard techniques. After hybridization, radioactive signals on the nitrocellulose filters were directly quantified using a BioRad GS-250 Molecular Imager. mRNA hybridization intensities were normalized to the amount of 28S ribosomal RNA present for each sample.

[2] = tested on: K562 cells
Experimental: To normalize luciferase units to the number of viable cells, parallel cell viability assays were performed using 3-(4,5-dimethylthiazol-2-yl)-2,5-diphenyltetrazolium bromide (MTT) (Vistica, D. T. et al. (1991) Cancer Res. 51:2515-2520). Transfected K562 cells were plated in 96 well dishes at a density of 2×10^4 and 2×10^3 cells per 100 μl per well. 24 hours later, the cells were treated with test compounds (at a final concentration of 5 mM). At 24, 50, 74 or 122 hours after treatment, 50 μl of 3 mg/ml MTT in PBS was added to each well. The 96 well plate was then incubated at 37° C. for 4 to 5 hours. The formazan derivatives formed from tetrazolium by viable cells were solubilized by the addition of 50 μl/well 25% SDS, pH 3, overnight at 37° C. The plates were than read at a wavelength of 550 nm.

[3] = tested on: gamma globin gene expression (gamma3'PE reporter) in K562 cells; experiment: gamma globin promoter-luciferase reporter assay in stably transfected gamma3'PE K562 cells; details: 5 mM, normalized to fold induction by BA
Experimental: The gamma globin 5' promoter and 3' enhancer fragments, alone or in combination with each other or another fragment, were inserted into restriction endonuclease sites flanking the coding sequences of the luciferase gene in pGL2 using standard recombinant DNA techniques (pGL2 was obtained commercially from Promega Biotech). Constructs were prepared which contained: 1) the gamma globin promoter alone upstream of the luciferase gene (gamma); 2) the gamma globin promoter upstream of the luciferase gene and the gamma globin 3' enhancer downstream of the luciferase gene (gamma3'PE); 3) the gamma globin promoter upstream of the luciferase gene and the SV40 enhancer downstream of the luciferase gene (gammaSV40); 4) the beta globin promoter upstream of the luciferase gene and the gamma globin 3' enhancer downstream of the luciferase gene Coeta3'PE); and 5) hypersensitive sites 2 and 3 G-IS2 and HS3) of the 5' globin enhancer upstream of the gamma globin promoter upstream of the luciferase gene and the gamma globin 3' enhancer downstream of the luciferase gene (HS2/3gamma3'PE). These constructs are illustrated schematically in FIG. 2. […]
K562 host cells carrying gamma globin-reporter gene constructs were used to lo screen compounds for their ability to induce globin gene expression, as measured by increased reporter gene activity in the host cells upon treatment with the compound. […]

[4] = tested on: GATA-1 mRNA; experiment: Northern hybridization of GATA-1 mRNA in treated K562 cells; assay type: cell-based; details: Homo sapiens, K562, 96 h, read-out: Fold Induction, GATA-1 RNA
Experimental: as §1

Compound: CC(C)CC(=O)O [IVA, isovaleric acid]
- fold induction at 5000 µM [1]: 7
- cell viability relative to untreated cells (FIG. 7) [2]: equivalent to that of untreated cells
- induction relative to BA at 74 hr (FIG. 4) ([3]; 74 hr): marginally better inducers than BA at 74 hr
- induction relative to BA at 122 hr (FIG. 4) ([3]; 122 hr): significantly better inducers than BA at 122 hr post induction
- fold induction at 5000 µM [4]: 23
